Results are given in words; binding and its absence hold for the method and conditions named. Binding seen in cells or lysates may run through a third protein. Some entries that bind do so weakly or less than the wild type.
Target: FLAG.TRRAP (FLAG-tagged TRRAP) (human) (UniProt Q9Y4A5)
Test: co-IP; α-FLAG IP (anti-FLAG M2 magnetic beads) of FLAG.TRRAP from lysates of HEK293 overexpressing WT HA.FoxO3; immunoblot

Protein sequences, listed by entry. Tags and fused reporters are not part of them.
UniProt Q9Y4A5: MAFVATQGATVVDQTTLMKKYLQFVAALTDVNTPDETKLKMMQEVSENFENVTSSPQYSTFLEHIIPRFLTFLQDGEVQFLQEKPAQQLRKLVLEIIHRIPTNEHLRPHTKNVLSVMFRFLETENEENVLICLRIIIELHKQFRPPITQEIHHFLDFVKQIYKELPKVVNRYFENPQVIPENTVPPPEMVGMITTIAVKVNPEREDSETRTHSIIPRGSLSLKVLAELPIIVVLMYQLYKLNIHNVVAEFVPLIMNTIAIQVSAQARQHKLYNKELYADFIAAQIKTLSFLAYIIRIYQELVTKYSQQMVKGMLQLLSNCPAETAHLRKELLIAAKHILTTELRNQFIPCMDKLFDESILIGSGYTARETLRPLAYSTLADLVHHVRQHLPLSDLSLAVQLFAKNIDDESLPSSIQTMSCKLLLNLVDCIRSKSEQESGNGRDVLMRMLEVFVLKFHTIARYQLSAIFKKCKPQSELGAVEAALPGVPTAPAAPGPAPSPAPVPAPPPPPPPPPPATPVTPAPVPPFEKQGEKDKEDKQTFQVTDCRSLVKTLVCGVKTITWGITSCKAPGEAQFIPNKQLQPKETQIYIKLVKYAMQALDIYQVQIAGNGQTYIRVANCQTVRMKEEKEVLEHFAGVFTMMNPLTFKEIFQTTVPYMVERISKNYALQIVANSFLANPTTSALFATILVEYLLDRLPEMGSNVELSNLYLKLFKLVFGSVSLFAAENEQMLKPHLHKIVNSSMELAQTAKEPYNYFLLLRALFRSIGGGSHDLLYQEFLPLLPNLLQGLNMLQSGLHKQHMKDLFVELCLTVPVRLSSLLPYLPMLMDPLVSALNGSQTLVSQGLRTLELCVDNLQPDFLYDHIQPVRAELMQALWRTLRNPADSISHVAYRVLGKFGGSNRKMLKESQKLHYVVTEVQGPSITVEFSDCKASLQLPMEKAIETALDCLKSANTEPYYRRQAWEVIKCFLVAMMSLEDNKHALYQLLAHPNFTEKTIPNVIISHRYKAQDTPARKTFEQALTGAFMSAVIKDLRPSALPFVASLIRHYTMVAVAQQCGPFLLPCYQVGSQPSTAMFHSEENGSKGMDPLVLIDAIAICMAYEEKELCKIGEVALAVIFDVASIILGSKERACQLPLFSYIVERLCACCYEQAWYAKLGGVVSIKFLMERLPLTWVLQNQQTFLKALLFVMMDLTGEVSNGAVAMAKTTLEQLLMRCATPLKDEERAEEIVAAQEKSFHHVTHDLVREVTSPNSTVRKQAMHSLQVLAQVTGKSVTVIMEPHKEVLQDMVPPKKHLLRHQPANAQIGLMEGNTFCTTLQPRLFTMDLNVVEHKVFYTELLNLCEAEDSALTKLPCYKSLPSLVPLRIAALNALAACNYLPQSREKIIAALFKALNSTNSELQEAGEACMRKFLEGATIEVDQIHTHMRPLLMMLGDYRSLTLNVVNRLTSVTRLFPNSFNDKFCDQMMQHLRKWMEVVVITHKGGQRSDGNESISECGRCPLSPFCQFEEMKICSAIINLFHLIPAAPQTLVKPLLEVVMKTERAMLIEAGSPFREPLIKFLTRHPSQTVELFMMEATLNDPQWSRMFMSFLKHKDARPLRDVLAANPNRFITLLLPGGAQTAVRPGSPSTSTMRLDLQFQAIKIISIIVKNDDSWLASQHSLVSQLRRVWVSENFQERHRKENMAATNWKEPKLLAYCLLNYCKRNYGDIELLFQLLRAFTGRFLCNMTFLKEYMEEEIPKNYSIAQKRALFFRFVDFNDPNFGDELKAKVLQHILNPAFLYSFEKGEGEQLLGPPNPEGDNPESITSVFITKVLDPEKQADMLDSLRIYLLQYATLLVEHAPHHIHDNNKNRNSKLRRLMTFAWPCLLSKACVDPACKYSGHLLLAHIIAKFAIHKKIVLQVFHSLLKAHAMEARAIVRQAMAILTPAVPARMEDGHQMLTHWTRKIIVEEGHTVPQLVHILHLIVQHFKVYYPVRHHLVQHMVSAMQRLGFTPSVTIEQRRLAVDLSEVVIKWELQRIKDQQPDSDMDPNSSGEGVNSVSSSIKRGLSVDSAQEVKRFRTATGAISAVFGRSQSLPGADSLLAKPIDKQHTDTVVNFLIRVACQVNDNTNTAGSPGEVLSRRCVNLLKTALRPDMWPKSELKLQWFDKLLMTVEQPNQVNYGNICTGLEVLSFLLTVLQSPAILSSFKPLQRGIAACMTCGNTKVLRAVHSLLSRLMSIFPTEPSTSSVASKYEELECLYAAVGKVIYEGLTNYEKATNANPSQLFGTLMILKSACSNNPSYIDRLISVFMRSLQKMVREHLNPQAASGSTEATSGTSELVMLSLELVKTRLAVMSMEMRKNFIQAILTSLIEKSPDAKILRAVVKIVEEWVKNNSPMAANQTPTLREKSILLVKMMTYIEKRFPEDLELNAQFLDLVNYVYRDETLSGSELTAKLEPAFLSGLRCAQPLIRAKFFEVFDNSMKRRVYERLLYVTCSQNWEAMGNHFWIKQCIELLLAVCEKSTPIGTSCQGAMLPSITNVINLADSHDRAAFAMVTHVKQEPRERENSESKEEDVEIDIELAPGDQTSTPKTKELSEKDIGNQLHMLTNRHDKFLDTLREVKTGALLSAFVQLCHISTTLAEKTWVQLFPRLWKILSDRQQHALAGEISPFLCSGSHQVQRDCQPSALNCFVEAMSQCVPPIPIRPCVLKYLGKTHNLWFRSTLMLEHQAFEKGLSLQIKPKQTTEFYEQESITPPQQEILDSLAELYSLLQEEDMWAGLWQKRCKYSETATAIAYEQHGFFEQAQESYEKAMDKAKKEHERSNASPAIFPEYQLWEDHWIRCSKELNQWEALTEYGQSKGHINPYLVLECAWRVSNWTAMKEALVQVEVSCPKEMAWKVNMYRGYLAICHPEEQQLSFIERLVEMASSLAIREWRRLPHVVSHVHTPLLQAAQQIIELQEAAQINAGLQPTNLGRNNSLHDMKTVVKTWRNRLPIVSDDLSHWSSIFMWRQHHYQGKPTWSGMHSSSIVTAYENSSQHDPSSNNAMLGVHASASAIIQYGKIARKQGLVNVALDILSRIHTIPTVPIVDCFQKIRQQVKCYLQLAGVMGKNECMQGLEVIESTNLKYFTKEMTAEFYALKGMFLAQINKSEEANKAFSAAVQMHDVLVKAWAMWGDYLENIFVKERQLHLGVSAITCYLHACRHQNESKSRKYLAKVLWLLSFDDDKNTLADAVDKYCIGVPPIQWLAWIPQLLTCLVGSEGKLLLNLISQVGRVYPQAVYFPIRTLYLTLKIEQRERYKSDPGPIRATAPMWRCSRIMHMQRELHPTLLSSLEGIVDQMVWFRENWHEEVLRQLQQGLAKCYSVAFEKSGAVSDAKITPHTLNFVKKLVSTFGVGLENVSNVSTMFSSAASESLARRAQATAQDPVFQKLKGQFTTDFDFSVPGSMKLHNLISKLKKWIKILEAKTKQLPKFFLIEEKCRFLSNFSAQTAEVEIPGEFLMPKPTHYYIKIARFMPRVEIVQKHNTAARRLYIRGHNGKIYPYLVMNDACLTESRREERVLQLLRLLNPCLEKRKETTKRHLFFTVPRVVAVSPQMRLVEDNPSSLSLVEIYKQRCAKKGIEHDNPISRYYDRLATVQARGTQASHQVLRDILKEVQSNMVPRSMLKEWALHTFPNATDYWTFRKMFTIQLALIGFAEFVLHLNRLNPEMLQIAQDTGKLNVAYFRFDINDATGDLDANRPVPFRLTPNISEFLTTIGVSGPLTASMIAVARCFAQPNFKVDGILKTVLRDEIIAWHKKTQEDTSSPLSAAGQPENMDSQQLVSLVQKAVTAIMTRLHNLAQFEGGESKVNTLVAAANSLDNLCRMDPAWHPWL
UniProt O43524: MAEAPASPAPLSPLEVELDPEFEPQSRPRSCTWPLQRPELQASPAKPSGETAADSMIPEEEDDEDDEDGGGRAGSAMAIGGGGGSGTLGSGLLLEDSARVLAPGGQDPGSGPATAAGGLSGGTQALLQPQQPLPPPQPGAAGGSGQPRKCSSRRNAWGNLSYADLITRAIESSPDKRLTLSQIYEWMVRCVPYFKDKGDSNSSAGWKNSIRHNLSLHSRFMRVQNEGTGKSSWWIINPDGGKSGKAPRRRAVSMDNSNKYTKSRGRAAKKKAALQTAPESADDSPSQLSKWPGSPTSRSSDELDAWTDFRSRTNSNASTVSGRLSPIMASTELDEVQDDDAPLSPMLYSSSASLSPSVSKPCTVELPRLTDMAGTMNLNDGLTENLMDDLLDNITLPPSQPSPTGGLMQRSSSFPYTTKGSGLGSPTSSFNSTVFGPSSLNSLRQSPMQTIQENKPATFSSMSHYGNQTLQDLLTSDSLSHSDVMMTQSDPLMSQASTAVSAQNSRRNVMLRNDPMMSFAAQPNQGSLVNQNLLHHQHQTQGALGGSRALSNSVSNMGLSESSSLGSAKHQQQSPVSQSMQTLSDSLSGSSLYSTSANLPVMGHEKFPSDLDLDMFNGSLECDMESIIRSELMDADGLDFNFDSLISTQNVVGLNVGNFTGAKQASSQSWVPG

binding: binds
Substance: HA.FoxO3 wt (WT HA.FoxO3 with functional PKB phosphorylation sites) (from UniProt O43524 1-673)

From article PMC8914384
